# Results are given in words; binding and its absence hold for the method and conditions named. Binding seen in cells or lysates may run through a third protein. Binding can be weak; no strength is given.
# By UniProt entry, the sequences of proteins in these tests, tags left out.
# UniProt Q03164: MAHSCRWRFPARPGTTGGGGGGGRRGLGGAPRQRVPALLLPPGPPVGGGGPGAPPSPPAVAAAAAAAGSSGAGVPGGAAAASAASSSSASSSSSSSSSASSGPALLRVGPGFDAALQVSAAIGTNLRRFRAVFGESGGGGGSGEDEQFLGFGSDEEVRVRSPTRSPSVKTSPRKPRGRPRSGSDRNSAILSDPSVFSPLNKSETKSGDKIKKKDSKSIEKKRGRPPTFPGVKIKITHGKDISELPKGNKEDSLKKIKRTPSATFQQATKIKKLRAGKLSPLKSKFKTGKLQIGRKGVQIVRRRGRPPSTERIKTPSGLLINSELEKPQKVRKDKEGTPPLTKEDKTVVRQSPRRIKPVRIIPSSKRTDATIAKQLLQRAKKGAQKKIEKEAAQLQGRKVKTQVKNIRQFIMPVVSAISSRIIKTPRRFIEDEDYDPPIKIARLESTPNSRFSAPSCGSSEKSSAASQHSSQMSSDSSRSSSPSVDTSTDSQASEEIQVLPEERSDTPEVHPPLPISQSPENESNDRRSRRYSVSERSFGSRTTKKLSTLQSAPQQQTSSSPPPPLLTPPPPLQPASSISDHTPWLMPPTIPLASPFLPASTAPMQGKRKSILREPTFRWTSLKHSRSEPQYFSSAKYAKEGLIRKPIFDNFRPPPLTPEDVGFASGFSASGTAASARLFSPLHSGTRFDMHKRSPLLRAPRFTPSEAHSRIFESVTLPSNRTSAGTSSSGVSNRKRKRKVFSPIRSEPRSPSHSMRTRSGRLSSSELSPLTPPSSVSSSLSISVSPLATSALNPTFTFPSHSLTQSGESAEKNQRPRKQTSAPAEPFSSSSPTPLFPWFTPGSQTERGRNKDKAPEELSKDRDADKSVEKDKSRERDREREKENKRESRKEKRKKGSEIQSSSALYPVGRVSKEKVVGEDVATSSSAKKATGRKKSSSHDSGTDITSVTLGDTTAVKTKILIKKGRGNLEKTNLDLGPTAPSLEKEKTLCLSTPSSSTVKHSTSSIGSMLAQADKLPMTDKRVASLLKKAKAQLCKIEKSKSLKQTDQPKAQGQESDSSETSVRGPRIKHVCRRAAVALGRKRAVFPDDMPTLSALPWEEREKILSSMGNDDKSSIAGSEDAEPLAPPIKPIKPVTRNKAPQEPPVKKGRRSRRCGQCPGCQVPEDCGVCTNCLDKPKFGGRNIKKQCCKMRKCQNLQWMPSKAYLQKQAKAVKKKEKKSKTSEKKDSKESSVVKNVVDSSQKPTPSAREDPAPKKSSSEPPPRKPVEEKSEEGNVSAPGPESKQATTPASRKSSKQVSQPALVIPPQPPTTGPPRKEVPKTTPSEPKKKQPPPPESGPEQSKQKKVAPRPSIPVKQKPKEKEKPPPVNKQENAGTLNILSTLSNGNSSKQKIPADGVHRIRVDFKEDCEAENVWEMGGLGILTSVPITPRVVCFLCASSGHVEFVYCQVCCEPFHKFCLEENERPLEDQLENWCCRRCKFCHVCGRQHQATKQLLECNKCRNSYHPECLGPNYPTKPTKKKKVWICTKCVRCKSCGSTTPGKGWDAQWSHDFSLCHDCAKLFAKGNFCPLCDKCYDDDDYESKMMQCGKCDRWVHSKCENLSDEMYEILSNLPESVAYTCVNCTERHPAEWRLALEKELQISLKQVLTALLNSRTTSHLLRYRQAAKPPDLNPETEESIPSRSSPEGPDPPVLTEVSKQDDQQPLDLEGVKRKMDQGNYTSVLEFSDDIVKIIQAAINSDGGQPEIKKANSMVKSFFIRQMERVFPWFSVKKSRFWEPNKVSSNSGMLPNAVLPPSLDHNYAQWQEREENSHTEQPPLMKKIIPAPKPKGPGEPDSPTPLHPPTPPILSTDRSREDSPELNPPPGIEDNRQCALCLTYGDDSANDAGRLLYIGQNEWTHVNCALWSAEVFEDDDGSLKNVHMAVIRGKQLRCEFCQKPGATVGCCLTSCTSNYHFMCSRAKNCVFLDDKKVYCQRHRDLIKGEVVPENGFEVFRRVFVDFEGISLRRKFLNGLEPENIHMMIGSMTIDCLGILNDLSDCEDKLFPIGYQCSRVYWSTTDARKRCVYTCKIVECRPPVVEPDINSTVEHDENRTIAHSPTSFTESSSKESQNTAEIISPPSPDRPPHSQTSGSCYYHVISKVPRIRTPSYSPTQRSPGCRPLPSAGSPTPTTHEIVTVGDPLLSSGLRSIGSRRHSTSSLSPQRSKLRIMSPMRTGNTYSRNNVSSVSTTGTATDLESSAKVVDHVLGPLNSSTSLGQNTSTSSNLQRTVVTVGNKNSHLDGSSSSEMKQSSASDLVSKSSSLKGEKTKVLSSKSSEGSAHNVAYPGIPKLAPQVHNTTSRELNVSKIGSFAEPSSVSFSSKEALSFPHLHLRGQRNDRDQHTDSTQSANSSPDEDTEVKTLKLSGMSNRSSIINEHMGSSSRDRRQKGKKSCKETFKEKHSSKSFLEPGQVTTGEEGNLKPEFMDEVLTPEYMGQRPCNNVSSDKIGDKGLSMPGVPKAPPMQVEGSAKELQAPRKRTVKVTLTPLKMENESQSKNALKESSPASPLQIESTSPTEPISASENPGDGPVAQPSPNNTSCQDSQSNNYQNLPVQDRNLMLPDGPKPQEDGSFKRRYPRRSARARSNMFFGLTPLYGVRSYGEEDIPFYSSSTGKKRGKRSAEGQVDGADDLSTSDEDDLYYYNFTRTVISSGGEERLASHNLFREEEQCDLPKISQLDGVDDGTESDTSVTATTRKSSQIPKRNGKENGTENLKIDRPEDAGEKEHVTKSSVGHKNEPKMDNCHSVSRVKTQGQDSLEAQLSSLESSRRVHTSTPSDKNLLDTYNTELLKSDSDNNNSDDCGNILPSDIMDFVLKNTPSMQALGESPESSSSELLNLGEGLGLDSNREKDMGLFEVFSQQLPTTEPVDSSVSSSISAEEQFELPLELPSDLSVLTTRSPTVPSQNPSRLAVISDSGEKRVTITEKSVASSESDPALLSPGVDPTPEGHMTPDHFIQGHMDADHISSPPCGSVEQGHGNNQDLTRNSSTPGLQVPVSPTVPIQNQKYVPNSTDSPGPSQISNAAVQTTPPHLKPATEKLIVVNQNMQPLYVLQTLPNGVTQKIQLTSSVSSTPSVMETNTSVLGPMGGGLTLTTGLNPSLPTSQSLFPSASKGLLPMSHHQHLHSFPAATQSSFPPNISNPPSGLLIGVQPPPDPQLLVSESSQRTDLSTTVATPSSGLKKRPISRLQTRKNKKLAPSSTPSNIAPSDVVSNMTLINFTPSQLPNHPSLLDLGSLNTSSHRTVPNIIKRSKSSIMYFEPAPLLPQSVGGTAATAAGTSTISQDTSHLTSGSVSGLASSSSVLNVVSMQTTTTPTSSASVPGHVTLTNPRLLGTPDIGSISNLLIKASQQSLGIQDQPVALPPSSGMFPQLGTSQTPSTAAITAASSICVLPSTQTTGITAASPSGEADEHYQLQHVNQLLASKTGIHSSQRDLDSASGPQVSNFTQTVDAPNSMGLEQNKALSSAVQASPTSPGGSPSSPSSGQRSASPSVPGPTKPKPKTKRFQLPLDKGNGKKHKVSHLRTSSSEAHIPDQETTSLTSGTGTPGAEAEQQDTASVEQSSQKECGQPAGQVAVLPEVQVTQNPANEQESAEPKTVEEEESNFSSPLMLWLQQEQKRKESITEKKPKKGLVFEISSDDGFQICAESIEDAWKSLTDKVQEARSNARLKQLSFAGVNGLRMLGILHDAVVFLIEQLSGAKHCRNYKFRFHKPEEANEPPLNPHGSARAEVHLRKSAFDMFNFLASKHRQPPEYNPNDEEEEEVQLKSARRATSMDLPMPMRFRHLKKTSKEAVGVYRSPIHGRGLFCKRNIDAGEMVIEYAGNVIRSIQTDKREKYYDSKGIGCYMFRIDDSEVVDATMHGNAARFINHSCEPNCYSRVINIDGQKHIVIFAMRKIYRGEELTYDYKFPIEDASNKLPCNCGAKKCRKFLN
# Target: KMT2A (human (endogenous in HEK293T)) (UniProt Q03164)
# Test: co-IP
substance,measurement,value
Adam13 (Xenopus laevis adam13.L) (from UniProt O12960),binding,binds
